Results taken from patent publication US8017809B2, “Bisboron compound” (Japan Science and Technology Agency, priority 2005, dated 2011).
Some results were stated once for a whole list of compounds, not compound by compound. At least one structure is not confirmed: it was looked up by name or label, or the drawing left a doubt.

Test system: capacitative calcium entry (CCE) in IP3 receptor-deficient strain of cell line DT40
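Note: intracellular Ca2+ read as 340/380 nm excitation ratio at 510 nm emission, stores emptied by thapsigargin without external Ca2+, then 2 mM CaCl2 added, inhibition of the ensuing Ca2+ rise.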

**Q.** Which IC50 does the source give for OB(c1ccccc1)c1ccc(Oc2ccc(B(O)c3ccccc3)cc2)cc1 [Example 1, Bis(4,4′-(phenylhydroxyboryl)phenyl) ether] here?
**A.** < 3000 nM
